Measured values taken from paper doi:10.1101/2021.01.13.426575.
These are yes or no findings as the source states them, for the method shown. Binding seen in cells or lysates may run through a third protein. Some entries that bind do so weakly or less than the wild type.

The chains behind the UniProt entries cited, without tags or fusion partners. Where a name states a change or a piece, a line headed by the entry shows the natural chain unless it says otherwise. Residues count along the entry.
UniProt Q9Y2G2, whole entry: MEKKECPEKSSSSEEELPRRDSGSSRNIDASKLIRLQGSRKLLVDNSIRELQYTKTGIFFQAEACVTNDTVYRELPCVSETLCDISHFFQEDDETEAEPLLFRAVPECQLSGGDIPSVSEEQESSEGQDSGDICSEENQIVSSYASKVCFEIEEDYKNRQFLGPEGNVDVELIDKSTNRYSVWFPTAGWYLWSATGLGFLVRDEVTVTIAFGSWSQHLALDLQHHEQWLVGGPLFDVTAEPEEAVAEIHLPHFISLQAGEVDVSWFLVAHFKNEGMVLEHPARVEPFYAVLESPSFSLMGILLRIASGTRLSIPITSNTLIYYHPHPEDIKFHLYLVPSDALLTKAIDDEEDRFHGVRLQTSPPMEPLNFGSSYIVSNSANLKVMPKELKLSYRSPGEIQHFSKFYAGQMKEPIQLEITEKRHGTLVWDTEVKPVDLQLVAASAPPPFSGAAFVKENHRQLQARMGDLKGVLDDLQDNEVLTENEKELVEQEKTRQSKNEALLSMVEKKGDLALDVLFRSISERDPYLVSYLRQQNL
UniProt Q9Y2G2, 297-537: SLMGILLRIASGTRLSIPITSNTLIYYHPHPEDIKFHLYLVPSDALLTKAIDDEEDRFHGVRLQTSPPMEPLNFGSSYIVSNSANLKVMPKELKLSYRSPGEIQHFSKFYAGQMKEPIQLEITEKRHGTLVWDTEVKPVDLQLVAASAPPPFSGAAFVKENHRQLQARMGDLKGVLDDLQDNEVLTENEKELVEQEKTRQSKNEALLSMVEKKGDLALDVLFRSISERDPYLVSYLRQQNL
UniProt Q86TI2, whole entry: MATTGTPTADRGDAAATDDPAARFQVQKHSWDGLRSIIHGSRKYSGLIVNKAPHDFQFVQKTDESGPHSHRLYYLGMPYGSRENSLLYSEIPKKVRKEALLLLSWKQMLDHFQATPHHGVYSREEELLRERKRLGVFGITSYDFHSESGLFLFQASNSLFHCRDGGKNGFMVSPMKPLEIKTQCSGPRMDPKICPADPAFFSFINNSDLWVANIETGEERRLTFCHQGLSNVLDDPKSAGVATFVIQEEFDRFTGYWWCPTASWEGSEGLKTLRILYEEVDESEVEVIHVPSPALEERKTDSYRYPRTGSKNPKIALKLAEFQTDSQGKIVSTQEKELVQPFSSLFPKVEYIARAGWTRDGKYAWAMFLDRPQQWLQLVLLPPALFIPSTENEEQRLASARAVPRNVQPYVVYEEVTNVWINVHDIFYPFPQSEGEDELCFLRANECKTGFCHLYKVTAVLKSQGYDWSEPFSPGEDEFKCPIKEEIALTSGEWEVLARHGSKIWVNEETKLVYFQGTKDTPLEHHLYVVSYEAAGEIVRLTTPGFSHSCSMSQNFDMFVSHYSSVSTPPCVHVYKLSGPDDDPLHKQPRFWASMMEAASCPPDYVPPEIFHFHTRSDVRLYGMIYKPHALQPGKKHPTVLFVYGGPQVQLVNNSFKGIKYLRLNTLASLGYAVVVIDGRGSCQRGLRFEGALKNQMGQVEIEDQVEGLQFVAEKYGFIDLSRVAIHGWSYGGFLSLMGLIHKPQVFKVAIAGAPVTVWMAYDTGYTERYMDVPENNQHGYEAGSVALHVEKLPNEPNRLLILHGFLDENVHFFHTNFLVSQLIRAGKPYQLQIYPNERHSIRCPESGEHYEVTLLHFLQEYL

Columns and labels:
Test in all cases: co-IP
[1] = target: FLAG-tagged CARD8-CT (UbN-CARD8-CT, S297-L537) (human) (UniProt Q9Y2G2)
[2] = target: FLAG-tagged CARD8-FIIND-S297A (human) (UniProt Q9Y2G2)
[3] = target: MYC-tagged CARD8-FIIND-S297A (human) (UniProt Q9Y2G2)
[4] = target: FLAG-tagged DPP9 (DPP9S), wild type (human) (UniProt Q86TI2)
[5] = target: HA-tagged full-length CARD8 E274R (interface I mutant) (human) (UniProt Q9Y2G2)
[6] = target: HA-tagged full-length CARD8 S297A (Tet-inducible, pInducer20) (human) (UniProt Q9Y2G2)
[7] = target: HA-tagged full-length CARD8, wild type (Tet-inducible, pInducer20) (human) (UniProt Q9Y2G2)

Which binding [1] does the source give for “MYC-tagged CARD8-FIIND-S297A (from UniProt Q9Y2G2-5 161-446) (domain or fragment)” here?
Its binding is “binds”.

How did the binding [2] turn out when “DPP9, endogenous in HEK 293T cells (from UniProt Q86TI2 1-863) (enzyme)” was run?
The binding was “binds”.

And the binding [3]?
Its binding is “binds”.

With “MYC-tagged full-length CARD8 S297A (from UniProt Q9Y2G2-5 1-537)” as the substance, how does the binding [4] read?
Its binding is “binds”.

With “His-tagged CARD8 (Figure 3B) (from UniProt Q9Y2G2-5 1-537)” as the substance, how does the binding [4] read?
Its binding is “binds”.

What does the source list for “DPP9, endogenous in THP-1 cells (from UniProt Q86TI2 1-863) (enzyme)”?
binding [5]: no binding; binding [6]: binds; binding [7]: binds
